Test results: paper PMC3025917
No constants are given. Whether binding was seen depends on the method and setting. In cells and extracts the contact can be indirect. Some entries that bind do so weakly or less than the wild type. Where a sequence is shown, tags or fusion partners need not be part of it. Each block holds one binder with its values, some of them ahead of it.

Columns and labels:
[1] = molecular target: T1, TAP-tagged Bur2 (S. cerevisiae) (UniProt Q05949); assay: co-IP; initial co-immunoprecipitations, before in vivo formaldehyde cross-linking was introduced; Bur2-TAP strains with galactose-induced 6×His-Cus2; parallel Cus2-His or Bur2-TAP immunoprecipitates examined by western
T1 sequence: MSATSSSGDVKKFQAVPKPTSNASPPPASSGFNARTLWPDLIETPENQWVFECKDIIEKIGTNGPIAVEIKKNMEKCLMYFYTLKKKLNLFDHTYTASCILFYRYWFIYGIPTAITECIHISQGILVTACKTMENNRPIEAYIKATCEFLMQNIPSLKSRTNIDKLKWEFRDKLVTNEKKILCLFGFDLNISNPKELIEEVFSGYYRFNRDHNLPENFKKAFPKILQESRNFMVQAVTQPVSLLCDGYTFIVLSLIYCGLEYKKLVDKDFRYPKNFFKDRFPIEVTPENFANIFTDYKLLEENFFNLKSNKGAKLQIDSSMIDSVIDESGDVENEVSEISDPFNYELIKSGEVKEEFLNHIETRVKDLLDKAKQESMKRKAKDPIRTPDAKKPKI

[2] = molecular target: T1, TAP-tagged Bur2 (S. cerevisiae); assay: co-IP; in vivo cross-linking with 1% formaldehyde for 15 minutes; whole cell extracts in 50 mM HEPES-KOH pH 7.5, 140 mM NaCl, 1 mM EDTA, 1% Triton-X, 0.1% deoxycholate; incubated 2.5 hours at 4°C with IgG Sepharose (Bur2-TAP) or NiNTA beads (Cus2-His); western with anti-TAP and anti-His
[3] = molecular target: T2, 6×His epitope-tagged Cus2 (S. cerevisiae) (UniProt P53830); assay: as above
T2 sequence: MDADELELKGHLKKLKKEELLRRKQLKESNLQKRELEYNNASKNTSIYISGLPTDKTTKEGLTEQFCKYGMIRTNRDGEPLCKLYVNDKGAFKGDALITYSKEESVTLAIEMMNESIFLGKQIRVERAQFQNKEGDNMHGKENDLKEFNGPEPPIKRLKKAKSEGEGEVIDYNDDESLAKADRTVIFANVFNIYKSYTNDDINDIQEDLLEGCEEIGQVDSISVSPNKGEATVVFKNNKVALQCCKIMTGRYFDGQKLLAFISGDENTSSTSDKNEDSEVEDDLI

[4] = molecular target: T1, TAP-tagged Bur2 (S. cerevisiae); assay: co-IP; data not shown; Bur1 and Bur2 co-immunoprecipitate, taken to show that the Bur2 pulldown holds both factors

binding [1]: no binding
binding [2]: no binding
B1: 6×His epitope-tagged Cus2 (protein, UniProt P53830 1-285)
chain: MDADELELKGHLKKLKKEELLRRKQLKESNLQKRELEYNNASKNTSIYISGLPTDKTTKEGLTEQFCKYGMIRTNRDGEPLCKLYVNDKGAFKGDALITYSKEESVTLAIEMMNESIFLGKQIRVERAQFQNKEGDNMHGKENDLKEFNGPEPPIKRLKKAKSEGEGEVIDYNDDESLAKADRTVIFANVFNIYKSYTNDDINDIQEDLLEGCEEIGQVDSISVSPNKGEATVVFKNNKVALQCCKIMTGRYFDGQKLLAFISGDENTSSTSDKNEDSEVEDDLI

binding [3]: no binding
B2: TAP-tagged Bur2 (protein, UniProt Q05949 1-395)
chain: MSATSSSGDVKKFQAVPKPTSNASPPPASSGFNARTLWPDLIETPENQWVFECKDIIEKIGTNGPIAVEIKKNMEKCLMYFYTLKKKLNLFDHTYTASCILFYRYWFIYGIPTAITECIHISQGILVTACKTMENNRPIEAYIKATCEFLMQNIPSLKSRTNIDKLKWEFRDKLVTNEKKILCLFGFDLNISNPKELIEEVFSGYYRFNRDHNLPENFKKAFPKILQESRNFMVQAVTQPVSLLCDGYTFIVLSLIYCGLEYKKLVDKDFRYPKNFFKDRFPIEVTPENFANIFTDYKLLEENFFNLKSNKGAKLQIDSSMIDSVIDESGDVENEVSEISDPFNYELIKSGEVKEEFLNHIETRVKDLLDKAKQESMKRKAKDPIRTPDAKKPKI

binding [4]: binds
B3: Bur1 (protein, UniProt P23293 1-657)
chain: MSDNGSPAVLPKTEFNKYKIGKVKSTPAIQRDAKTNLTYIKLRKRSSEKVYGCTVFQNHYREDEKLGQGTFGEVYKGIHLETQRQVAMKKIIVSVEKDLFPITAQREITILKRLNHKNIIKLIEMVYDHSPDITNAASSNLHKSFYMILPYMVADLSGVLHNPRINLEMCDIKNMMLQILEGLNYIHCAKFMHRDIKTANILIDHNGVLKLADFGLARLYYGCPPNLKYPGGAGSGAKYTSVVVTRWYRAPELVLGDKQYTTAVDIWGVGCVFAEFFEKKPILQGKTDIDQGHVIFKLLGTPTEEDWAVARYLPGAELTTTNYKPTLRERFGKYLSETGLDFLGQLLALDPYKRLTAMSAKHHPWFKEDPLPSEKITLPTEESHEADIKRYKEEMHQSLSQRVPTAPRGHIVEKGESPVVKNLGAIPRGPKKDDASFLPPSKNVLAKPPPSKIRELHQNPRPYHVNSGYAKTAIPPPAAPAGVNRYGPNNSSRNNRFSGNSTAPNNSRNPVNRFHPETNVSSKYNKVPLPLGPQSRYQGNSNESRYKNSPNDSRYHNPRYVNKPETNFNRQPQKYSRQESNAPINKNYNPSNGSRNMAGDHHQGSRPSHPQFPISPSQGQHQLTSKPIEKKNGSFKDERAKPDESKEFQNSDIADLY
